These results are taken from article doi:10.1101/2021.12.17.473155.

Sequences of proteins named here, by UniProt entry; tags and fusion partners are left off.
UniProt O15550: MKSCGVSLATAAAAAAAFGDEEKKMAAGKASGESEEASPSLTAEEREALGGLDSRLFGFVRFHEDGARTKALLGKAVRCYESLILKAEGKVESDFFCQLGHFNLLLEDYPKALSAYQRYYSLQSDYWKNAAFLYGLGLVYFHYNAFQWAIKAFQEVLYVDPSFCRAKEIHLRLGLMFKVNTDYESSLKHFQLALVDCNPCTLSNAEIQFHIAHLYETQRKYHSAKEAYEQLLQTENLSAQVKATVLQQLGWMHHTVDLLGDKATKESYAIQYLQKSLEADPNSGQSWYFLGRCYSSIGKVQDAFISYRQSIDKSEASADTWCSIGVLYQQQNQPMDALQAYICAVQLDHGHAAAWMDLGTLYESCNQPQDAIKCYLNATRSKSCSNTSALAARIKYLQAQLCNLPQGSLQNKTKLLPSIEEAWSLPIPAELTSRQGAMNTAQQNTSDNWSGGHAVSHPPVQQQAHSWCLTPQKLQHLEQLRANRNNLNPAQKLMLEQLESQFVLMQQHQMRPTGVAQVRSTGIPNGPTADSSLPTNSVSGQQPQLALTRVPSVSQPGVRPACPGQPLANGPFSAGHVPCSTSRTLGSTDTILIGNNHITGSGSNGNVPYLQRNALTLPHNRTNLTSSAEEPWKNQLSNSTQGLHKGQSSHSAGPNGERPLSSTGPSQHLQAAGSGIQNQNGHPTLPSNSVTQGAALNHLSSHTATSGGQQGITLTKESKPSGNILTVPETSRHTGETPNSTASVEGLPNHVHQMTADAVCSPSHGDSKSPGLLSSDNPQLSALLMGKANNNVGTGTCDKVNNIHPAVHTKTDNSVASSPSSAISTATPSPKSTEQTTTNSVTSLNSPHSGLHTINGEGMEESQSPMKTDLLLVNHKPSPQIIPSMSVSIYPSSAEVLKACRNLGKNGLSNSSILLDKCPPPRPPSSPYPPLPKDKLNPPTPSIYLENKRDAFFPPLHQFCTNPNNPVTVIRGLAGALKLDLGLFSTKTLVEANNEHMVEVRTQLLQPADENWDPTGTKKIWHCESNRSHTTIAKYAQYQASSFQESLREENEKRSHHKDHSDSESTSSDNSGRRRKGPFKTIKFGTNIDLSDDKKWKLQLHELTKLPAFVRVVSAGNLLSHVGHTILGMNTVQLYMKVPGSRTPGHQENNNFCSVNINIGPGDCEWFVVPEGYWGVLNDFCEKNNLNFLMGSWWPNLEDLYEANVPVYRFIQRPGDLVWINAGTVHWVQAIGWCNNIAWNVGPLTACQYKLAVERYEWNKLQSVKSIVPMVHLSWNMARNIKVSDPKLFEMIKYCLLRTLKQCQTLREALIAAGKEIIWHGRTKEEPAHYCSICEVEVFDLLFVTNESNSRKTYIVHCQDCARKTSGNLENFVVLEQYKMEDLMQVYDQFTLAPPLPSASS

For this test, the target named is FLAG-UTX (UniProt O15550). As to the kind of experiment: affinity purification with mass spectrometry.

Results are given in words; binding and its absence hold for the method and conditions named. Binding seen in cells or lysates may run through a third protein. These calls come from enrichment with a bait or labelling near it, and not all partners need be listed.

B1: ELMSAN1 (protein, UniProt Q6PJG2 1-1045)
chain: MNLQAQPKAQNKRKRCLFGGQEPAPKEQPPPLQPPQQSIRVKEEQYLGHEGPGGAVSTSQPVELPPPSSLALLNSVVYGPERTSAAMLSQQVASVKWPNSVMAPGRGPERGGGGGVSDSSWQQQPGQPPPHSTWNCHSLSLYSATKGSPHPGVGVPTYYNHPEALKREKAGGPQLDRYVRPMMPQKVQLEVGRPQAPLNSFHAAKKPPNQSLPLQPFQLAFGHQVNRQVFRQGPPPPNPVAAFPPQKQQQQQQPQQQQQQQQAALPQMPLFENFYSMPQQPSQQPQDFGLQPAGPLGQSHLAHHSMAPYPFPPNPDMNPELRKALLQDSAPQPALPQVQIPFPRRSRRLSKEGILPPSALDGAGTQPGQEATGNLFLHHWPLQQPPPGSLGQPHPEALGFPLELRESQLLPDGERLAPNGREREAPAMGSEEGMRAVSTGDCGQVLRGGVIQSTRRRRRASQEANLLTLAQKAVELASLQNAKDGSGSEEKRKSVLASTTKCGVEFSEPSLATKRAREDSGMVPLIIPVSVPVRTVDPTEAAQAGGLDEDGKGPEQNPAEHKPSVIVTRRRSTRIPGTDAQAQAEDMNVKLEGEPSVRKPKQRPRPEPLIIPTKAGTFIAPPVYSNITPYQSHLRSPVRLADHPSERSFELPPYTPPPILSPVREGSGLYFNAIISTSTIPAPPPITPKSAHRTLLRTNSAEVTPPVLSVMGEATPVSIEPRINVGSRFQAEIPLMRDRALAAADPHKADLVWQPWEDLESSREKQRQVEDLLTAACSSIFPGAGTNQELALHCLHESRGDILETLNKLLLKKPLRPHNHPLATYHYTGSDQWKMAERKLFNKGIAIYKKDFFLVQKLIQTKTVAQCVEFYYTYKKQVKIGRNGTLTFGDVDTSDEKSAQEEVEVDIKTSQKFPRVPLPRRESPSEERLEPKREVKEPRKEGEEEVPEIQEKEEQEEGRERSRRAAAVKATQTLQANESASDILILRSHESNAPGSAGGQASEKPREGTGKSRRALPFSEKKKKTETFSKTQNQENTFPCKKCGR
On to B1, for which the binding entry is listed as “binds”.
